The source of these data is publication PMC3750193, “Disassembly of All SNARE Complexes by N-Ethylmaleimide-sensitive Factor (NSF) Is Initiated by a Conserved 1:1 Interaction between α-Soluble NSF Attachment Protein (SNAP) and SNARE Complex*^([image sbox.jpg])” (The Journal of Biological Chemistry, 2013).

Protein sequences, listed by entry. Tags and fused reporters are not part of them. Lines headed by an entry give the natural chain unless they say otherwise; changes in a name come on top. Chains listed by the source or under a name are the forms on record and can include a tag or linker. Residues count along the entry.
VAMP7(119–190) (Q9JHW5, residues 119-190): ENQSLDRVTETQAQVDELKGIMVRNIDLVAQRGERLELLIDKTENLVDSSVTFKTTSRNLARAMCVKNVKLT
VAMP7(1–190)-C21S/C56V (Q9JHW5, form named): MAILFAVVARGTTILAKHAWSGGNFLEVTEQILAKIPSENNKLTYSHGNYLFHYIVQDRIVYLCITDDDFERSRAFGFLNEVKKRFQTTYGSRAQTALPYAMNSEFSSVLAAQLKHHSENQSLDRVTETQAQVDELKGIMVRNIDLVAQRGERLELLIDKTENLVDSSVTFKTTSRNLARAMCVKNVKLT
SNAP25A (P60881-2, form named): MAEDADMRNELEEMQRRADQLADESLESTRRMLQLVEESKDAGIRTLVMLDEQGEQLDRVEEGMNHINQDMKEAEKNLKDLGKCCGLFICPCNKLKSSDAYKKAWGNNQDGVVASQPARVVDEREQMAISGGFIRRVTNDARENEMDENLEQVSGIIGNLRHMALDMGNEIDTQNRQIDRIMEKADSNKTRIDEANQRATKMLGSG
syntaxin4A(1–274)-C141S/E257C/I261C (Q08850, form named): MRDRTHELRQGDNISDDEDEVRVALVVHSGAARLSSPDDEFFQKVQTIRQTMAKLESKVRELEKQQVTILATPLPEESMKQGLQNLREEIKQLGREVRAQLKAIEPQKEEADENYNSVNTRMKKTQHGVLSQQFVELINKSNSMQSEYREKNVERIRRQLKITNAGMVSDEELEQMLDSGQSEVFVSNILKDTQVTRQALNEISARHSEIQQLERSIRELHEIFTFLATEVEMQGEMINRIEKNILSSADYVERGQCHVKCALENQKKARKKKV

Results are given in words; binding and its absence hold for the method and conditions named. Some binding calls cover weakened binding; strength is not graded here.

One experiment concerns the target VAMP7(119–190) (rat) (UniProt Q9JHW5). The experiment can be described thus: co-purification of coexpressed proteins; coexpressed in E. coli BL21(DE3), 12 h at 25 °C; lysate on Ni-NTA agarose, washed, eluted with 300 mM imidazole, then Superdex 200 gel filtration; monitored by SDS-PAGE, mass spectrometry, CD and MALS.
Experiment [1] addresses VAMP7(1–190)-C21S/C56V (rat) (UniProt Q9JHW5). The description is as above.
In another experiment the target is T1, VAMP8(1–76)-I76C (rat) (UniProt Q9WUF4).
T1 sequence: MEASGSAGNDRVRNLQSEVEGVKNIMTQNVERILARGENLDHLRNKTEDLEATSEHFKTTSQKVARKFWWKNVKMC
Described as above.

The target of experiment [2] is α-soluble NSF attachment protein (α-SNAP) (rat) (UniProt P54921). Description: SEC-MALS; 30 μM SNARE complex and 90 μM α-SNAP (1:3 mixture); WTC-030S5 column; 20 mM Tris-HCl (pH 8.0), 50 mM NaCl, 0.1 mM TCEP; both purified. (Size exclusion chromatography separates by hydrodynamic size, large species first.)

As to SNAP25A (from UniProt P60881-2 1-206), the binding result (in the experiment with VAMP7(119–190) (rat); in experiment [1]) was “binds” in each case.

“syntaxin4A(1–274)-C141S/E257C/I261C (from UniProt Q08850 1-274) (domain or fragment)”: the binding result (with VAMP8(1–76)-I76C (rat); in experiment [1]) was “binds” in each case.

B1: SNAP23 (protein, UniProt O70377 1-210)
chain: MDDLSPEEIQLRAHQVTDESLESTRRILGLAIESQDAGIKTITMLDEQGEQLNRIEEGMDQINKDMREAEKTLTELNKCCGLCVCPCNRTKNFESGKNYKATWGDGGDSSPSNVVSKQPSRITNGQPQQTTGAASGGYIKRITNDAREDEMEENLTQVGSILGNLKNMALDMGNEIDAQNQQIQKITEKADTNKNRIDIANTRAKKLIDS
As to B1, the binding result (with VAMP8(1–76)-I76C (rat); in experiment [1]) was “binds” in each case.

B2: α-soluble NSF attachment protein (α-SNAP) (natural protein, rat, UniProt P54921 1-295, looked up)
chain: MDTSGKQAEAMALLAEAERKVKNSQSFFSGLFGGSSKIEEACEIYARAANMFKMAKNWSAAGNAFCQAAQLHLQLQSKHDAATCFVDAGNAFKKADPQEAINCLMRAIEIYTDMGRFTIAAKHHISIAEIYETELVDVEKAIAHYEQSADYYKGEESNSSANKCLLKVAGYAAQLEQYQKAIDIYEQVGTSAMDSPLLKYSAKDYFFKAALCHFCIDMLNAKLAVQKYEELFPAFSDSRECKLMKKLLEAHEEQNVDSYTESVKEYDSISRLDQWLTTMLLRIKKTIQGDEEDLR
notes: α-SNAP, rat; His6 tag removed with tobacco etch virus protease; source: E. coli BL21(DE3), purified (Ni-NTA, Superdex 200)
Consider B2, for which the binding entry in experiment [2] is reported as “no binding (tested: 90 μM α-SNAP with 30 μM SNARE complex)”.
